Data set [1] addresses T1, Jumu (endogenous) (UniProt Q7K214).
T1 sequence (looked up, limits assumed): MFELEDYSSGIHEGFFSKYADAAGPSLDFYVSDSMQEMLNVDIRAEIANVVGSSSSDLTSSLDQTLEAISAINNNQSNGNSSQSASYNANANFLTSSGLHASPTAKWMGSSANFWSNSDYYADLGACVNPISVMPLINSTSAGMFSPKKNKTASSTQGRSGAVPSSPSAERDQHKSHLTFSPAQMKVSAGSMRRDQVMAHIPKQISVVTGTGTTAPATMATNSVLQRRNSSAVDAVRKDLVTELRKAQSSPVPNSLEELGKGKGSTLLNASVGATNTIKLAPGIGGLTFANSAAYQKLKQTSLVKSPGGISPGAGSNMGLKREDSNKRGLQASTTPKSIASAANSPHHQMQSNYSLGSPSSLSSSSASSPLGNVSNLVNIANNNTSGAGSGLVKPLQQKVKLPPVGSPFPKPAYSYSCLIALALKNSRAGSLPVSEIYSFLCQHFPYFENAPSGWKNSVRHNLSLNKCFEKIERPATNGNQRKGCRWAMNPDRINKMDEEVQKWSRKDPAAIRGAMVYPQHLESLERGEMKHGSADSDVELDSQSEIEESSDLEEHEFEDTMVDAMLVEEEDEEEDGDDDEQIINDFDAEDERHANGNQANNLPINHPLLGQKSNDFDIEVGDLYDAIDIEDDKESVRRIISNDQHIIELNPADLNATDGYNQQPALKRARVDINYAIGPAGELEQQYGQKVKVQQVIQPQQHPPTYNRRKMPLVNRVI
In words: pull-down, western blot and MS. As to conditions: N6-methyladenine in place of dA, by PCR with dm6ATP (both strands; primer-derived adenines probably unmodified, primers not given); pull-down: 50 mM Tris-HCl pH 8, 150 mM NaCl, 1 mM DTT, 0.25% NP40; protein in an extract. (In general: In western blotting, separated proteins are transferred to a membrane and probed.)

The target in the next data set is T2, GST-Jumu FKH domain (UniProt Q7K214).
T2 sequence (looked up): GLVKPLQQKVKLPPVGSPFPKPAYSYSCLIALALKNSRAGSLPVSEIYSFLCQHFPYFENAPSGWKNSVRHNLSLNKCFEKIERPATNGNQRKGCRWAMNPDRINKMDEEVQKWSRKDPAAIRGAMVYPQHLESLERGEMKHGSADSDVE
In words: EMSA competition. The note with it: 10, 20, 40-fold competitor, 2 µM protein; EMSA: 20 mM HEPES pH 7.5, 50 mM KCl, 1 mM DTT (printed DDT), 1 mM EDTA, 0.01 mg/ml BSA, 2% Ficoll 400, 5 ng/µl poly(dI:dC), 25 °C, 15 nM probe; recombinant protein; residues 391-540; protein details: GST.

Data set [2] concerns the target T1, Jumu (endogenous). In words: pull-down, western blot. As to conditions: pull-down: 50 mM Tris-HCl pH 8, 150 mM NaCl, 1 mM DTT, 0.25% NP40; protein in an extract.

For part of these data: The comparison behind a weaker result is the experiment's own reference, which may not be listed here. Tags and fusion partners may be left off the protein sequences shown. For part of these data: For at least one entry, the source does not settle the construct or the ends of the probe. For part of these data: At least one result comes from cells or an extract, where the contact may be indirect.

In the case of “GCTATTTATGCGTTCTTTTCTTCTTTCTCATTTCTATATTTATAGTGTGTGTGTGTGTGTGGGTGTGTTTGTTGTATGTGGTTAAATATGCTTCGTTTTTGTTTAATTGGTTTTTGTTTTTGTGATGATCATGGG (double strand) [6mA-dsDNA probe]”, the binding result with Jumu (endogenous) [1] is “binds”. With “GCTATTTATGCGTTCTTTTCTTCTTTCTCATTTCTATATTTATAGTGTGTGTGTGTGTGTGGGTGTGTTTGTTGTATGTGGTTAAATATGCTTCGTTTTTGTTTAATTGGTTTTTGTTTTTGTGATGATCATGGG (double strand) [dA-dsDNA probe]”, the binding result with GST-Jumu FKH domain and in the data set with Jumu (endogenous) [2] was “binds more weakly” in each case.

The values are drawn from article PMC6525185, “6mA-DNA-binding factor Jumu controls maternal-to-zygotic transition upstream of Zelda”.
